Binding data for two substances are collected here from article PMC12391449, “Hepatitis C virus NS3 helicase contributes to (−) strand RNA synthesis”.

By UniProt entry, the sequences of proteins in these tests, tags left out. Residues count along the entry.
HCV non-structural protein 3 (NS3), JFH1 wt (hepatitis C virus, isolate JFH1 (gt2a)) (Q99IB8, residues 1031-1661): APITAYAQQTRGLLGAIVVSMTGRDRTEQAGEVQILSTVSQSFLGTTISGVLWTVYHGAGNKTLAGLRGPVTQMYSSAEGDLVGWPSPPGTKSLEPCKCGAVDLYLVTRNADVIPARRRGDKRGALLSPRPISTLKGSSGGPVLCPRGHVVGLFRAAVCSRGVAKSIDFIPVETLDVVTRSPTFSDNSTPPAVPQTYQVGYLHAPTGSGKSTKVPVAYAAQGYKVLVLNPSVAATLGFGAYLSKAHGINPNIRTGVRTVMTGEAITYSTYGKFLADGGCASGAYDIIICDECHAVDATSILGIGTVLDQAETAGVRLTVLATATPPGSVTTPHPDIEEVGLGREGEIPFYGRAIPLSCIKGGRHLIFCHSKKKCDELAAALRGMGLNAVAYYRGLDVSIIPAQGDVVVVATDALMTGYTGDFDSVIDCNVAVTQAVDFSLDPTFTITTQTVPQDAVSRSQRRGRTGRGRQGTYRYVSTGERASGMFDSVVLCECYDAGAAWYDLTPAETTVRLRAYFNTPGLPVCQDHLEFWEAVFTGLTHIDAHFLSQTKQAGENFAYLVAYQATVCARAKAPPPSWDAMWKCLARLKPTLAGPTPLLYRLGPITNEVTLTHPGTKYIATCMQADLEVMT
HCV non-structural protein 4B (NS4B), JFH1 (Q99IB8, residues 1716-1976): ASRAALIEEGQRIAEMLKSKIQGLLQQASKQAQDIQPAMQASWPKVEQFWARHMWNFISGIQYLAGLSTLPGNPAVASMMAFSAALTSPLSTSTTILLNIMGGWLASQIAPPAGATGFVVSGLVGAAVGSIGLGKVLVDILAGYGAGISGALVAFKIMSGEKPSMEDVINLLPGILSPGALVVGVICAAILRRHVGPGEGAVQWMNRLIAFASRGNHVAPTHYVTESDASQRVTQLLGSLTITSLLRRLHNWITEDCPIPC
HCV non-structural protein 5A (NS5A), JFH1 (Q99IB8, residues 1977-2442): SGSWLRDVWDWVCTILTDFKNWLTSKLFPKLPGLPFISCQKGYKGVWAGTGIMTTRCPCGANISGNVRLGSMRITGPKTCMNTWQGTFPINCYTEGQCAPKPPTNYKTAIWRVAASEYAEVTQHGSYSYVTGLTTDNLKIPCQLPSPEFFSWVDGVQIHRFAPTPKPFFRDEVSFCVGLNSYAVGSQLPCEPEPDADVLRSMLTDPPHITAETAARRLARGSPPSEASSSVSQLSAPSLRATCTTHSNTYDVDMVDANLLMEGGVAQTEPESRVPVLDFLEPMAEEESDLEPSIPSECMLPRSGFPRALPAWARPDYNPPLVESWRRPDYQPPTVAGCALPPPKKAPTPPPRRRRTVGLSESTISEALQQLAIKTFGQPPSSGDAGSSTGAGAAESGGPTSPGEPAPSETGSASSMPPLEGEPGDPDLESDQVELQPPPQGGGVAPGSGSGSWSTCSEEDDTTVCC

These are yes or no findings as the source states them, for the method shown. Binding seen in cells or lysates may run through a third protein. Some results given as binding are weak or reduced against the parent protein; the word gives no strength.

Assay [1] deals with HCV non-structural protein 3 (NS3), JFH1 wt (hepatitis C virus, isolate JFH1 (gt2a)) (UniProt Q99IB8). Put plainly: co-IP; NS3-5B expressed transiently in Huh7-Lunet T7 cells; no DSP; lysis in native protein buffer (50 mM Tris-HCl pH 7.5, 150 mM NaCl, 1% NP-40, 1% sodium deoxycholate, 0.1% SDS); NS3 2E3 antibody on protein G dynabeads, overnight at 4 °C; WB.
Assay [2] shares this target. Put plainly: co-IP; NS3-5B expressed transiently in Huh7-Lunet T7 cells; cells treated with the cell-permeable crosslinker DSP; NS3-IP; NS proteins detected by WB.

Regarding “HCV non-structural protein 4B (NS4B), JFH1 (from UniProt Q99IB8 1716-1976)”, the binding entry in assay [1] is listed as “no binding (condition: in the absence of DSP)”; in assay [2], “binds”.
In the case of “HCV non-structural protein 5A (NS5A), JFH1 (from UniProt Q99IB8 1977-2442)”, the binding result is on record as “no binding (condition: in the absence of DSP)” in assay [1] and “binds” in assay [2].
